The data set has as its system OATP1B2. In words: Untargeted metabolomics of plasma and DRG, WT vs OATP1B2-deficient mice. It is filed as in vivo, mouse. The note with it: untargeted metabolomics, WT vs OATP1B2-deficient mice.
Where [1] appears, read: supplement sheet "Figure 5B" (volcano plot).
The mark [2] stands for this setting: Figure 5B source data (volcano plot), log2 fold change of metabolite level.

`CCCCCCCC/C=C\CCCCCC/C=C\OCC(O)COP(=O)(O)OCCN` (stereo not shown) [1-(1-enyl-oleoyl)-GPE (P-18:1)*] gave a Log2FoldChange under setting [1] of 1.111.
Same read-out and setting: under `CCCCCCCCCCCCCC/C=C/OCC(O)COP(=O)([O-])OCC[N+](C)(C)C` (stereo not shown) [1-(1-enyl-palmitoyl)-GPC (P-16:0)*] stands 0.669.
Consider `CCCCCCCCCCCCCC/C=C\OC[C@@H](O)COP(=O)(O)OCCN` [1-(1-enyl-palmitoyl)-GPE (P-16:0)*], for which the Log2FoldChange by setting is: under setting [1], 0.84; (sheet "Figure 5C") 0.275.
`CCCCCCCCCCCCCCCC/C=C\OC[C@@H](O)COP(=O)(O)OCCN` [1-(1-enyl-stearoyl)-GPE (P-18:0)*] yielded a Log2FoldChange under setting [1] of 0.7824.
Still for that read-out and setting: under `CCCCC/C=C\C/C=C\C/C=C\C/C=C\CCCC(=O)OCC(O)COP(=O)(O)O` (stereo not shown) [1-arachidonoyl-GPA (20:4)] stands 0.848.
`CCCCC/C=C\C/C=C\C/C=C\C/C=C\CCCC(=O)OC[C@@H](O)COP(=O)([O-])OCC[N+](C)(C)C` [1-arachidonoyl-GPC (20:4n6)*]: the Log2FoldChange reads like this: under setting [1], 0.7049; (sheet "Figure 5C") 0.4222.
On the same counts, the results for `CCCCC/C=C\C/C=C\C/C=C\C/C=C\CCCC(=O)OC[C@@H](O)COP(=O)(O)OCCN` [1-arachidonoyl-GPE (20:4n6)*] are 0.5753 and 0.2265.
For `CCCCC/C=C\C/C=C\C/C=C\C/C=C\CCCC(=O)OC[C@@H](O)COP(=O)(O)OC1C(O)C(O)C(O)C(O)C1O` (stereo partly shown) [1-arachidonoyl-GPI (20:4)*], the Log2FoldChange came to 0.5656 under setting [1] and 0.6041 (sheet "Figure 5C").
Consider `CCCCC/C=C\C/C=C\C/C=C\C/C=C\CCCC(=O)OCC(O)CO` (stereo not shown) [1-arachidonylglycerol (20:4)], for which the Log2FoldChange (supplement sheet "Figure 5B") was -0.08927 and the Log2FoldChange (sheet "Figure 5C") was 0.4005.
In the case of `CC[C@H](C)[C@H](NC(C)C(=O)O)C(=O)O` (stereo partly shown) [1-carboxyethylisoleucine], the Log2FoldChange reads like this: (supplement sheet "Figure 5B") 0.2016; (sheet "Figure 5C") -0.2515.
As for `CC(C)C[C@H](NC(C)C(=O)O)C(=O)O` (stereo partly shown) [1-carboxyethylleucine], the Log2FoldChange is 0.2265 under setting [1] and -0.2009 (sheet "Figure 5C").
Under setting [1], `CC(N[C@@H](Cc1ccccc1)C(=O)O)C(=O)O` (stereo partly shown) [1-carboxyethylphenylalanine] gave a Log2FoldChange of 0.4751.
On the same count and under the same terms, under `CC(N[C@@H](Cc1ccc(O)cc1)C(=O)O)C(=O)O` (stereo partly shown) [1-carboxyethyltyrosine] stands 0.4436.
Turning to `CC(N[C@H](C(=O)O)C(C)C)C(=O)O` (stereo partly shown) [1-carboxyethylvaline], under “sheet "Figure 5C"”, the Log2FoldChange is -0.1361.
Consider `CCCCC/C=C\C/C=C\C/C=C\CCCCCCC(=O)OCC(O)CO` (stereo not shown) [1-dihomo-linolenylglycerol (20:3)], for which, for the setting “supplement sheet "Figure 5B"”, the Log2FoldChange is -0.074.
`CCC=CCC=CCC=CCC=CCC=CCC=CCCC(=O)OCC(O)CO` (stereo not shown) [1-docosahexaenoylglycerol (22:6)]: the Log2FoldChange is, setting by setting: under setting [2], -0.3959; (sheet "Figure 5C") 0.4647.
On to `CCCCCCCCCCCCCCCCCCCCCCCC(=O)OCC(O)COP(=O)([O-])OCC[N+](C)(C)C` (stereo not shown) [1-lignoceroyl-GPC (24:0)], for which the Log2FoldChange is listed as 0.4436 under setting [1] and 0.05658 (sheet "Figure 5C").
On to `CC/C=C\C/C=C\C/C=C\CCCCCCCC(=O)OC[C@@H](O)COP(=O)([O-])OCC[N+](C)(C)C` [1-linolenoyl-GPC (18:3)*], for which the Log2FoldChange under setting [1] is given as 1.091.
Regarding `CC/C=C\C/C=C\C/C=C\CCCCCCCC(=O)OCC(O)CO` (stereo not shown) [1-linolenoylglycerol (18:3)], the Log2FoldChange (supplement sheet "Figure 5B") is -0.1203.
As for `CCCCC/C=C\C/C=C\CCCCCCCC(=O)OC[C@@H](O)COP(=O)(O)O` [1-linoleoyl-GPA (18:2)*], the Log2FoldChange under setting [1] came out at 1.239.
Take `CCCCC/C=C\C/C=C\CCCCCCCC(=O)OC[C@@H](O)COP(=O)([O-])OCC[N+](C)(C)C` [1-linoleoyl-GPC (18:2)]: the Log2FoldChange by setting is: under setting [1], 0.696; (sheet "Figure 5C") 0.3103.
The corresponding values for `CCCCC/C=C\C/C=C\CCCCCCCC(=O)OC[C@@H](O)COP(=O)(O)OCCN` [1-linoleoyl-GPE (18:2)*] are 0.9561 and 0.3674.
The corresponding values for `CCCCC/C=C\C/C=C\CCCCCCCC(=O)OC[C@@H](O)COP(=O)(O)OCC(O)CO` (stereo partly shown) [1-linoleoyl-GPG (18:2)*] are 1.891 and 0.7225.
Turning to `CCCCC/C=C\C/C=C\CCCCCCCC(=O)OC[C@@H](O)COP(=O)(O)OC1[C@H](O)[C@H](O)C(O)[C@H](O)[C@H]1O` (stereo partly shown) [1-linoleoyl-GPI (18:2)*], the Log2FoldChange by setting is: under setting [1], 0.7225; (sheet "Figure 5C") 0.7485.
In the case of `CCCCC/C=C\C/C=C\CCCCCCCC(=O)OC[C@@H](O)COP(=O)(O)OC[C@H](N)C(=O)O` [1-linoleoyl-GPS (18:2)*], the Log2FoldChange (supplement sheet "Figure 5B") was found to be 0.2016 and the Log2FoldChange (sheet "Figure 5C") is 0.669.
The corresponding values for `CCCCC/C=C\C/C=C\CCCCCCCC(=O)OCC(O)CO` (stereo not shown) [1-linoleoylglycerol (18:2)] are -0.152 and 0.3674.
As for `Cn1cnc(CC(=O)O)c1` [1-methyl-4-imidazoleacetate], the Log2FoldChange (sheet "Figure 5C") came out at 0.4751.
Take `Cn1cnc(CCN)c1` [1-methylhistamine]: the Log2FoldChange runs as follows: under setting [1], 0.2265; (sheet "Figure 5C") 0.263.
For the compound `Cn1cnc(C[C@H](N)C(=O)O)c1` [1-methylhistidine], the Log2FoldChange was -0.1047 (supplement sheet "Figure 5B") and 0.3219 (sheet "Figure 5C").
For the compound `C[n+]1cccc(C(N)=O)c1` [1-methylnicotinamide], the Log2FoldChange by setting is: under setting [2], -0.2345; (sheet "Figure 5C") -0.074.
With `CCCCCCCCCCCCCCCC(=O)OC(COC(=O)CCCCCCCCCCCCC)COP(=O)([O-])OCC[N+](C)(C)C` (stereo not shown) [1-myristoyl-2-palmitoyl-GPC (14:0/16:0)], the Log2FoldChange is, setting by setting: under setting [1], 0.6781; (sheet "Figure 5C") -0.1203.
Turning to `CCCCCCCCCCCCCC(=O)OCC(O)CO` (stereo not shown) [1-myristoylglycerol (14:0)], the Log2FoldChange runs as follows: under setting [2], -0.2176; (sheet "Figure 5C") 0.3785.
As to `CCCCC/C=C\C/C=C\C/C=C\C/C=C\CCCC(=O)O[C@H](COC(=O)CCCCCCC/C=C\CCCCCCCC)COP(=O)(O)OCCN` [1-oleoyl-2-arachidonoyl-GPE (18:1/20:4)*], the Log2FoldChange is listed as 0.189 (supplement sheet "Figure 5B") and -0.152 (sheet "Figure 5C").
In the case of `CCCCC/C=C\C/C=C\C/C=C\C/C=C\CCCC(=O)O[C@H](COC(=O)CCCCCCC/C=C\CCCCCCCC)COP(=O)(O)OC1C(O)C(O)C(O)C(O)C1O` (stereo partly shown) [1-oleoyl-2-arachidonoyl-GPI (18:1/20:4)*], the Log2FoldChange was 1.0072 under setting [1] and -0.415 (sheet "Figure 5C").
As for `CCCCC/C=C\C/C=C\CCCCCCCC(=O)O[C@H](COC(=O)CCCCCCC/C=C\CCCCCCCC)COP(=O)([O-])OCC[N+](C)(C)C` [1-oleoyl-2-linoleoyl-GPC (18:1/18:2)*], the Log2FoldChange (sheet "Figure 5C") is given as -0.1361.
For `CCCCC/C=C\C/C=C\CCCCCCCC(=O)O[C@H](COC(=O)CCCCCCC/C=C\CCCCCCCC)COP(=O)(O)OCCN` [1-oleoyl-2-linoleoyl-GPE (18:1/18:2)*], the Log2FoldChange is on record as 0.275 under setting [1] and -0.152 (sheet "Figure 5C").
With `CCCCCCCC/C=C\CCCCCCCC(=O)OC[C@@H](O)COP(=O)([O-])OCC[N+](C)(C)C` [1-oleoyl-GPC (18:1)], the Log2FoldChange is, setting by setting: under setting [1], 0.8319; (sheet "Figure 5C") 0.3103.
